# Data taken from PubChem BioAssay AID1347076 (National Center for Advancing Translational Sciences (NCATS), 2019).
# “And” between values parts separate entries of the source, which are not always exact repeats. Identical values can stand only once. Out of some 400,000 compounds screened, about 13,000 (3.2%) were called active. The inconclusive results got no clear call from the source; some entries with a clear call stand among them for comparison. Calls come from the whole dose curve; as a rule, active = well fitted cell-killing curve with a large enough effect; inconclusive = small, poorly fitted or top-dose-only effect, or effect the other way; inactive = flat fitted curve, though single readings scatter. A potency beside an inconclusive call is a rough fit, not a confirmed value.
# Assay: qHTS assay for MDR1-selective chemotherapeutics: Primary screen using the drug-selected MDR subline cells KB-V1; note: nearly all actives have a fitted effect of over 60% in size
# Conditions: KB-V1 MDR cells viability, CellTiter-Glo, 72 h; activity change, negative = cytotoxicity: at 46.1 µM (top of the series)
# Summary of the method: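 Cytotoxicity via CellTiter-Glo luminescence after 72 h compound exposure at 37 degrees C. Cells: drug-selected KB-V1 line, DMEM phenol-red free plus 10% FBS. Compounds tested at multiple concentrations; normalized data fitted to concentration-effect curves.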
# % is set by controls: 0 for no effect and ±100 for the full control effect; potency is the fitted concentration of half-maximal effect.
SMILES,Potency,"activity change, negative = cytotoxicity"
CCOc1ccc(CCN2C(=S)N([C@@H](CC(C)C)CN3CCCC3CN3C(=S)NC[C@@H]3CC(C)C)C[C@@H]2Cc2ccc(O)cc2)cc1 (stereo not given in full),"inconclusive: 18.4 µM [cytotoxic, single point]",–
Cn1c(=O)c2[nH]c(C3CC4CCC3C4)nc2n(C)c1=O (stereo not given),"inconclusive: 32.6 µM [cytotoxic, partial curve, poor fit]",–
O=S(=O)(c1ccccc1)N(c1ccccc1)S(=O)(=O)c1ccccc1,active: 9.2 µM,–
O=C(CSc1ccccc1)Nc1ccc2c(c1)OCCO2,"inconclusive: 29.1 µM [cytotoxic, single point]",–
CCCn1c(O)c(/C=C2\C=NN=C2c2ccccc2)sc1=S,"inconclusive: 20.6 µM [cytotoxic, single point]",–
CCCCCCCCN1C(=O)[C@H](CC(=O)NCCc2ccccc2OC)C[C@@]2(C(=O)OC)CCCCC=C12,"inconclusive: 16.4 µM [cytotoxic, partial curve, poor fit]",–
CN(C)CCCN1C(=O)C2CCc3[nH]c4ccccc4c3C2C1=O (stereo not given),–,inactive: -2.6%
COC(=O)CNC(c1ccccc1)c1cc(C)ccc1NC(=O)c1cccc(Cl)c1 (stereo not given),–,inactive: -25.7%
COc1cccc(-c2cc(C(F)(F)F)c(C#N)c(=O)[nH]2)c1,–,inactive: 4.26%
Cc1ccc(S(=O)(=O)N2C=CC(C(F)(F)F)=NCC2)cc1,–,inactive: -19.2%
COC(=O)C1=CN(c2ccccc2OC)C(N)=C(C#N)C1c1cccc([N+](=O)[O-])c1 (stereo not given),active: 4.11 µM,–
O=C(COc1cccc2c1CCN(Cc1ccc(Cl)cc1)C2=O)N1CCOCC1,"inconclusive: 2.91 µM [cytotoxic, full curve, poor fit]",–
Cc1cc(OCC(=O)Nc2ccncc2)cc(C)c1Br,"inconclusive: 9.2 µM [cytotoxic, partial curve]",–
Cc1ccc(S(=O)(=O)N2CCOCC2)cc1C(=O)N(C)CCOc1ccc(Cl)cc1,"inconclusive: 8.2 µM [cytotoxic, partial curve, poor fit]",–
CCCNC(=O)c1c(N)n(-c2cccc(OC)c2)c2nc3ccccc3nc12,"inconclusive: 23.1 µM [cytotoxic, partial curve, poor fit]",–
CCOC(=O)c1c(C)[nH]c(C(=O)CN2C(=O)NC3(CCCC3)C2=O)c1C,–,inactive: 12.8%
C[C@@H]1COC(=O)[C@@H](CC(=O)OC(C)(C)C)C/C=C\C[C@H](CC(=O)N(CCO)Cc2ccccc2)C(=O)N1,"inconclusive: 29.1 µM [rising, single point]",–
CC(C)(C)n1nc(Cc2cccc3ccccc23)c2c(N)ncnc21,"inconclusive: 18.4 µM [cytotoxic, partial curve]",–
O=C1c2ccccc2C(=O)c2c1ccc1c(=O)n(-c3ccccc3)[nH]c21,"inconclusive: 18.4 µM [cytotoxic, partial curve]",–
Cc1c(CCC(=O)N[C@@H](CC(C)C)C(=O)O)c(=O)oc2cc3oc4c(c3cc12)CCCC4,–,inactive: 0%
COc1ccc(NC(=O)N2CCCC(C(=O)NCCc3ccccc3)C2)cc1 (stereo not given),active: 23.1 µM,–
Cc1cc(C(=O)CSc2ncccn2)c(C)n1-c1cccc(F)c1,"inconclusive: 16.4 µM [cytotoxic, single point]",–

SMILES,Potency,"activity change, negative = cytotoxicity"
COc1cccc2c3c(c(C)nc12)CCN3c1ccccc1,"inconclusive: 20.6 µM [cytotoxic, single point]",–
Cc1ccc(NC(=O)CN(C)CC(=O)Nc2cccc(F)c2)cc1S(=O)(=O)N1CCCCCC1,"inconclusive: 29.1 µM [cytotoxic, single point]",–
COc1ccc(-c2nnc(SCC(=O)Oc3cccc(C)c3C)o2)cc1,–,inactive: 11.8%
CCCC1NC(=O)c2cc3ccccc3cc2-n2c1nc1cc(Cl)ccc1c2=O (stereo not given),active: 11.6 µM,–
COc1cccc(NC(=O)Cn2c(=O)n(-c3ccccc3)c(=O)c3sccc32)c1,–,inactive: -0.631%
COc1ccc(CCn2c(-c3ccc(OC)cc3)nc3c(c(=O)c4ccccc4n3C)c2=O)cc1,"inconclusive: 29.1 µM [rising, single point]",–
C#CCOCCOCCOCCNc1nc(N2CCN(C(=O)[C@H]([C@@H](C)O)n3cc(CCCCN)nn3)CC2)nc(N2CCN(C(=O)[C@H](Cc3ccc(O)cc3)n3cc(CCO)nn3)CC2)n1,"inconclusive: 3.26 µM [rising, partial curve]",–
O=C(Cn1cnc2c(cnn2-c2ccc(F)cc2)c1=O)NCc1ccco1,active: 8.2 µM,–
Cc1cc(C(C)(C)C)oc1C(=O)N(CC(=O)NC1CCCC1)Cc1ccccc1,"inconclusive: 14.6 µM [cytotoxic, partial curve]",–
O=C(Nc1ccc(N2CCCC2)cc1)c1cccc(Cl)c1Cl,"inconclusive: 29.1 µM [cytotoxic, single point]",–
Nc1nc(-c2ccccc2)c(-c2ccccc2)n1N,"inconclusive: 20.6 µM [rising, single point]",–
O=C(NCc1noc2ccccc12)Nc1ccc(F)cc1F,"inconclusive: 25.9 µM [cytotoxic, single point]",–
Cc1ccc(Cc2c(-c3cccc(Cl)c3)nc3ccc(Cl)cn23)cc1,–,inactive: -0.433%
CC(NC(=O)C(=O)NCCC1=CCCCC1)c1ccccc1 (stereo not given),"inconclusive: 10.3 µM [cytotoxic, partial curve]",–
COc1ccc(OC)c(-c2csc(NC(=O)Cc3ccccc3F)n2)c1,"inconclusive: 16.4 µM [cytotoxic, partial curve]",–
CCOc1ccc(CN2CCN(CC(O)Cn3c4ccccc4c4ccccc43)CC2)cc1 (stereo not given),"inconclusive: 18.4 µM [cytotoxic, partial curve, poor fit]",–
COc1ccc2cc(CN(C(=O)Nc3ccccc3)C3CCCC3)c(=O)[nH]c2c1,"inconclusive: 8.2 µM [cytotoxic, partial curve]",–
Cc1cccc(NC(=O)CNC(=O)COC(=O)C2CC2C)c1C (stereo not given),"inconclusive: 16.4 µM [cytotoxic, partial curve, poor fit]",–
CCOCC(=O)Nc1cc(C)on1,–,inactive: 12.8%
O=C(CCn1cnc(-c2ccccc2)c1-c1ccccc1)N/N=C/c1ccccc1O,–,inactive: 0%
CCOC(=O)C1=CCN(S(=O)(=O)c2cccc(Cl)c2)C1c1ccccc1 (stereo not given),active: 18.4 µM,–
CCC(=O)c1ccc(OC(=O)/C=C/c2cc(OC)c(OC)c(OC)c2)cc1,"inconclusive: 3.66 µM [rising, full curve, poor fit]",–

SMILES,Potency,"activity change, negative = cytotoxicity"
CCOC(=O)c1c(C)[nH]c(C)c1C(=O)COC(=O)c1sccc1C,active: 18.4 µM,–
COc1ccc(C)cc1NC(=O)CN1C(=O)COc2ccc(S(=O)(=O)N3CCCCCC3)cc21,–,inactive: -25.5%
Cc1ccc(C(=O)Nc2ccc3c(c2)OCO3)cc1S(=O)(=O)N1CCCCC1,"inconclusive: 20.6 µM [cytotoxic, single point]",–
CC1(c2nc3ccccc3[nH]2)CCC2=Nc3ccccc3CN21 (stereo not given),–,inactive: -7.48%
COC(=O)CCN1CCN(S(=O)(=O)c2ccc3c(c2)OCCO3)CC1,"inconclusive: 29.1 µM [rising, single point]",–
CCCCOc1ccc(Cc2c(COCC)[nH]c(=S)[nH]c2=O)cc1,"inconclusive: 29.1 µM [cytotoxic, single point]",–
CC(C)(C)CNC(=O)c1cccc2c1C(=O)c1ccc(N3CCCC3)cc1S2(=O)=O,–,inactive: -5.41%
CCc1ccc(NC(=O)COc2cccc(-n3cnnn3)c2)cc1,"inconclusive: 25.9 µM [cytotoxic, single point]",–
O=S(=O)(c1ccc(Cl)c(Cl)c1)c1snnc1-c1ccccc1,"inconclusive: 3.66 µM [cytotoxic, partial curve, poor fit]",–
COc1ccc(Cl)cc1NC(=O)Nc1ccc(C(=O)N2CCCC2)cc1,"inconclusive: 8.2 µM [cytotoxic, partial curve, poor fit]",–
c1ccc2c(c1)COc1c3cc4c(cc3nn1-2)OCO4,"inconclusive: 16.4 µM [cytotoxic, single point]",–
CCC1CCc2c(sc(NC(=O)C3c4ccccc4Oc4ccccc43)c2C#N)C1 (stereo not given),"inconclusive: 18.4 µM [cytotoxic, single point]",–
COc1ccc(C2=Nc3ccccc3N(C(=O)Cc3cc(OC)cc(OC)c3)C2C(=O)NC(C)(C)C)cc1 (stereo not given),"inconclusive: 7.31 µM [cytotoxic, partial curve]",–
Cc1ccc(NC(=O)c2sc(N)nc2-c2ccccc2)cc1C,"inconclusive: 18.4 µM [cytotoxic, partial curve, poor fit]",–
Cc1ccsc1CN(C)CC(=O)N(C)CC(=O)Nc1c(Cl)cccc1Cl,"inconclusive: 29.1 µM [cytotoxic, single point]",–
COc1ccc(C(=O)/C=C/C(=O)N(Cc2ccc3c(c2)OCO3)C(C(=O)NC2CCCCC2)c2ccncc2)c(O)c1 (stereo not given),active: 2.06 µM,–
COc1ccc(NCc2nc3ccccc3n2CCOc2ccc(C)cc2)cc1,"inconclusive: 29.1 µM [cytotoxic, single point] and inconclusive: 13 µM [cytotoxic, partial curve, poor fit]",–
Cc1ccc([C@H]2C[C@@H](n3cc(C4CC4)nn3)[C@H](O)CN2CC2CCCCC2)cc1,"inconclusive: 25.9 µM [cytotoxic, single point]",–
O=C(Nc1ccccn1)c1ccc(Br)c(S(=O)(=O)N2CCCCC2)c1,"inconclusive: 16.4 µM [cytotoxic, single point]",–
O=C(NCc1cc(Cl)cc(Cl)c1)c1ccc2nc([C@H]3C[C@H](O)[C@@H](CO)O3)[nH]c2c1,–,inactive: 5.28%
O=C(Nc1ccc(F)c([N+](=O)[O-])c1)C(=O)c1c(O)[nH]c2ccccc12,–,inactive: 0%
